According to PMC11263360, “The structural basis of the activation and inhibition of DSR2 NADase by phage proteins” (Nature Communications, 2024):

Molecular target: Strep-tagged TTP (SPR phage)
Experiment: pull-down; Strep pull-down on Strep-Tactin resin; 50 µg DSR2 pre-mixed with Strep-TTP (1:1) or with MBP-DSAD1 at the indicated ratios for 1 h on ice, then the third protein added; 25 mM Tris pH 7.5, 100 mM NaCl, 1 mM DTT; SDS-PAGE with Coomassie; both purified

binding: binds
B1: DSR2 from Bacillus subtilis 29 R, wild type (enzyme, UniProt P0DXN8 1-1005, looked up)
chain: MVKVDLESKRYGEKLKEVFLMLDNNVVECIKEITESSRNGKLVFFVGAGVSTLSDYPQWWRLVDKYHEELYGSPKKGNYSSDEYLRIPQIFYNVKGEMAFDGILKDFFQVDKPTNPIHDKILAMNPAHVITTNYDNLIDTACWKRGKYFSVISAEEDVANATSSRYLLKVHGDFRKGFKGENVVLKEDDYLNYDQNYPLISNLMKTIIATHTIVFIGYGLGDYNINMLLNWVRKLQKDSFHKPFFIRTDPSPIENETLIYYENKGLRIIDAASLIDSNEYDYLERYSAVMDLLIESQENKFITKDDEVIDYIYGKISPLFALQYIRKIDLKHVFEYDYHFEVNGTVVRHKNKGFGYMERFFELKESCDERSKLSKKQYERFNALFNFFEKNGVICMAKDAGTLNTSIEINSLAYHGKYDVMKKFIEEQSVSIEDDYKKAFFLACLGRWEESYDLYSNIILNSIDESNGCVYYLSQINRYRIYQSITQAVTQFNGLGLLTFGRHYKPFTDEFLARIEREMTNFNIDDLFNGMPFEFQKKYKILEFLSDNQFLYDDTVKLFELTNKVRSEMSEGSYSFGMSSDIVVLLRLYDNLRFLYENCLWSVSFHEFHQYIRNSMSLLIEKAEYERTRDIDELGFSFFGKKSGFFMEYYDFVNISRHFKIDDIKNLERSCSIDKIRFGEQEKIEEYLVGIAEEITKQFSANGMNVVFYTQFISEAKAALYFAKYVKLSEEGLGKIVKALLFYFPERDLDIGKRYVWLERLTKCNELPKSIISIIDDFLVLQAEKHIDQNYSEVSSNGLYSRDYGALIKHFEKNFISKRLSEITLCLTQDKQKQIDFLFKLLPLLSTNAKSHLLSFKSVENINDLMNGIRIGLIDEFTPEHEELIIEYLETRKVNYIVEKEKGIQTFSSNDYMSTFGIWYFLEEINNSKMEEFIGMDDQYDFFVDPENFDYKKFIPSWLKNYNDKLLGKIAGNKHMKHHVIEVLKERVKNSNDKRYLEILMNYFI
notes: DSR2, Sir2 domain-containing NADase, Bacillus subtilis 29 R, WP_029317421, full length (domains described over residues 1-1005); Cloned into pRSF-32M or pET-32M.3C (both add N-terminal thioredoxin and 6xHis); Crosslinked with BS3 for part of the cryo-EM data; also called WT DSR2; wild-type (WT) DSR2; source: E. coli BL21 (DE3), purified (Ni-NTA, size exclusion); for the DSR2-DSAD1 complex …

No constants are given. Whether binding was seen depends on the method and setting. A result given as binding can be weak or reduced; the word gives no strength.
